Data taken from PubChem BioAssay AID493014 (National Center for Advancing Translational Sciences (NCATS), 2011).
The whole screen tested about 340,000 compounds, of which about 170 (0.05%) were called active. Inconclusive results, whose numbers are uncertain, are shown with a selection of clear calls. The call rests on the fitted dose curve; in most records, active means well fitted inhibition curve with a large enough effect in the signal ratio, with a control signal flat (not every such curve was filed as active); inconclusive means small, poorly fitted or top-dose-only effect, or effect the other way, or a change in a side signal; inactive means flat fitted curve, though single readings scatter; the % refers to the signal ratio. Potencies of inconclusive entries are doubtful fits and often do not repeat.

experiment: qHTS Assay to Find Inhibitors of Chronic Active B-Cell Receptor Signaling; settings: ABC-DLBCL IkBa-CBG/CBR reporter, luminescence ratio (green luciferase fused to IkBa over red control in TMD8 lymphoma cells), 4 h; activity change, negative = inhibition: at 46.1 µM (top of the series) unless noted;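 on activity change, negative = inhibition: plate controls were basal doxycycline-induced cells for no effect and cells given 10 µM MG132 for full effect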
Outline: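 Doxycycline induced both beetle luciferases in TMD8 lymphoma cells; IKK-driven degradation limits the IkappaBalpha-fused green signal, while red luminescence normalises for cell number and nonspecific effects. Compounds tested up to 46 uM, 4 hrs.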
Potency means the concentration at half of the fitted maximal effect.

Row | Compound | activity change, negative = inhibition | Potency
1 | CC(C)CN1C(=O)C(=O)N(CC(=O)NC(C)CCc2ccccc2)C1=O (configuration not stated) | inactive: 0.935% | –
2 | CCC1=NN(C(=O)c2ccccc2O)C(O)(c2ccccc2)C1 (configuration not stated) | – | inconclusive: 3.16 µM [falling, partial curve, poor fit]
3 | CN(C)CCCN(C(=O)CCSc1ccccc1)c1nc2cc3c(cc2s1)OCO3 | – | inconclusive: 20 µM [falling, partial curve]
4 | COc1cccc(C(=O)NC(=S)Nc2ccc3c4c(cccc24)CC3)c1 | – | inconclusive: 14.1 µM [falling, partial curve]
5 | COc1ccc2c(=O)c(-c3cnn(-c4ccccc4)c3)c(C)oc2c1 | inconclusive: 13.8% | –
6 | COc1ccc(NC(=O)c2nc3nccc(C)n3n2)cc1S(=O)(=O)N1CCOCC1 | inconclusive: 0.794% | –
7 | O=C(Nc1ccc2oc(-c3cccc4ccccc34)nc2c1)c1ncn[nH]1 | inactive: -18.4% | –
8 | Fc1ccc(CNCCC(Cc2ccccc2)c2ccco2)cc1 (configuration not stated) | inconclusive: -24.4% | –
9 | COc1ccccc1/C=C/C(=O)N1CCOCC1 | – | inconclusive: 20.6 µM [falling, partial curve]
10 | Cc1nn(-c2cccc(C(F)(F)F)c2)c(=O)c2noc(C)c12 | inconclusive: -1.2% | –
11 | Cc1ccc(/C(N)=N/OC(=O)CCCc2ccccc2)cc1 | inconclusive: 15.1% | –
12 | Cc1cccc(-n2ncc3c(NCCN4CCOCC4)ncnc32)c1 | inconclusive: 7.59% | –
13 | Cc1c(C(=O)NC(=S)NCC(C)C)oc2ccccc12 | inconclusive: 3.22% | –
14 | Cc1ccc2nc(SCC(=O)c3c[nH]c4ccccc34)[nH]c2c1 | inconclusive: 1.25% | –
15 | Cc1ccc(C(=O)NC(=S)NNC(=O)c2ccccc2O)cc1 | – | inconclusive: 20 µM [falling, single point]
16 | O=C(OC1CCOC1=O)C1CCN(S(=O)(=O)c2c(Cl)cccc2Cl)CC1 (configuration not stated) | inactive: 0.645% | –
17 | COc1ccc(NC(=O)Cn2ccc3c(OC)cccc3c2=O)cc1 | inconclusive: -5.15% | –
18 | CC1CCCC(n2c(=S)[nH]c3ccccc3c2=O)C1C (configuration not stated) | inconclusive: -23% | –
19 | O=C(COC(=O)c1c(F)cccc1F)Nc1ccc(N2CCCCC2)cc1 | inconclusive: 4.97% | –
20 | O=C(Nc1nnc(-c2cccs2)o1)c1cccc(Oc2ccccc2)c1 | – | inconclusive: 31.6 µM [cytotoxic, single point]
21 | CCOc1ncccc1C(=O)OCC(=O)c1cc(OC)c(OC)c(OC)c1 | inconclusive: -7.87% | –

In another format: entries from further up
Row	Compound	activity change, negative = inhibition	Potency
3	CN(C)CCCN(C(=O)CCSc1ccccc1)c1nc2cc3c(cc2s1)OCO3	–	inconclusive: 20 µM [falling, partial curve]
4	COc1cccc(C(=O)NC(=S)Nc2ccc3c4c(cccc24)CC3)c1	–	inconclusive: 14.1 µM [falling, partial curve]

Following part:

Row | Compound | activity change, negative = inhibition | Potency
22 | COC(=O)C1=NN(C(=O)c2ccccc2)C(C)(O)C1 (configuration not stated) | inactive: 1.02% | –
23 | COc1cc(C(=O)OC(C)c2ccc(F)cc2)ccc1OCC(=O)N1CCOCC1 (configuration not stated) | inconclusive: 0.0512% | –
24 | O=C(Cn1cc(C(F)(F)F)ccc1=O)N/N=C/c1ccccc1O | inactive: 15.3% | –
25 | CCCc1cc(-c2ccc3c(c2)COc2c4ccccc4nn2-3)on1 | inconclusive: 11.1% | –
26 | Cc1ccc(Cl)cc1N1CCN(C(=O)C2CCN(S(C)(=O)=O)CC2)CC1 | inconclusive: 0.246% | –
27 | Cc1cc(C)cc(N(CC(=O)Nc2cccc(C)c2C)S(=O)(=O)c2c(C)[nH]c(=O)[nH]c2=O)c1 | inactive: 3.44% | –
28 | COc1ccc(-c2ccc3c(N)c(C(=O)NC(C)C)sc3n2)cc1OC | inactive: -23.8% | –
29 | COCCN(C(=S)Nc1ccc(C(C)C)cc1)C(C)c1cccs1 (configuration not stated) | inactive: -4.34% | –
30 | COc1ccc(C(=O)N2CCN(CCNC(=O)C(=O)Nc3ccc(F)cc3)CC2)cc1 | – | inconclusive: 14.1 µM [falling, partial curve, poor fit]
31 | O=C(CN1CCCCC1)Nc1cccc(Cl)c1Cl | inconclusive: 8.32% | –
32 | Cc1cccc(-n2ncc3c(N4CC(C)CC(C)C4)ncnc32)c1 (configuration not stated) | – | inconclusive: 4.11 µM [rising, full curve, poor fit]
33 | COc1ccc(-n2sc3ccc(F)cc3c2=O)cc1 | – | inconclusive: 5.8 µM [falling, single point]
34 | COc1cc(C(=O)N/N=C(\C)Cc2ccccc2)cc(OC)c1OC | – | inconclusive: 3.66 µM [falling, full curve]
35 | CC1(C)CC2(CC(c3ccccc3)c3ccc(O)cc3O2)NC(=S)N1 (configuration not stated) | inconclusive: -26.4% | –
36 | CCCOc1ccc(C(CC(=O)O)NC(=O)Cc2ccccc2)cc1 (configuration not stated) | inconclusive: 8.03% | –
37 | Cc1cc(O)c(-c2cc(C(=O)Nc3cccnc3)[nH]n2)cc1C | – | inconclusive: 11.2 µM [falling, partial curve]
38 | Cn1cc(CN2CCN(c3cnccn3)CC2)c(-c2cccc(Cl)c2)n1 | – | inconclusive: 35.5 µM [falling, single point]
39 | COc1ccc(OC)c(C2CC(=O)N3CN(c4ccccc4F)CSC3=C2C#N)c1 (configuration not stated) | inactive: -4.72% | –
40 | Cc1ccc(C(=O)CCc2ccc(N)cc2)cc1 | inconclusive: -4.96% | –
41 | CN(C)Cc1cc(CN(C)C)c(O)c(CCc2ccccc2)n1 | inconclusive: 7.93% | –
42 | COC(=O)c1sccc1NC(=O)CNC(=O)c1ccccc1 | – | inconclusive: 22.4 µM [falling, single point]
